# Measurements as given in the supplement of paper PMC3334620.
# The full ranking holds about 33,000 sequences; the median of “E-score (-0.5 to 0.5)” is about -0.0014, and the highest 2% start at about 0.25. This is one part of the list.
# Target: T1, Cad1 (UniProt P24813)
# T1 sequence: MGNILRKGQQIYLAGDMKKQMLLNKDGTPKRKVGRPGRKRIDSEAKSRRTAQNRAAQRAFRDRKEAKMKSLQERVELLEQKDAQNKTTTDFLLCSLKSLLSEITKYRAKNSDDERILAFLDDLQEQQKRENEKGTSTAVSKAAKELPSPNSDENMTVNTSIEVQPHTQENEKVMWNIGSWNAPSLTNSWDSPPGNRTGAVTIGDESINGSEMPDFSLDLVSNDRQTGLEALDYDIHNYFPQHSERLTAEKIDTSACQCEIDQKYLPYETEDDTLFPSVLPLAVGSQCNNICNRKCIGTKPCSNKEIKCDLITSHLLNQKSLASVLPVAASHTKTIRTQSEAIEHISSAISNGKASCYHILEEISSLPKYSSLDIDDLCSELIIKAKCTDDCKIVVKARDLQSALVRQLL
# Assay: PBM E-score (8-mer binding enrichment) (E-score (-0.5 to 0.5)); higher = stronger / more preferred TF binding
# Conditions: protein concentration: 100 nM; construct: GST-full length
# How it was run: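 Each ungapped eight-base word and its reverse complement, pooled, received an E-score from the Universal PBM Analysis Suite. Underlying scans, normalised with masliner, recorded fluorescent anti-GST bound to GST-tagged yeast transcription factors. These were applied at about 100-200 nM to universal all-10-mer Agilent arrays double-stranded by primer extension.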
row,Sequence,PBM E-score
1,CAAGTTGA,0.0129
2,GACCATCA,0.06
3,ATTGTGTC,0.0338
4,CAATTCTC,0.0551
5,GATCTCGC,0.0917
6,AAGTAAGT,-0.0379
7,AACGGCAG,-0.164
8,ACTTATAC,0.154
9,GAGCGCTC,0.115
10,ATACCGCG,0.242
11,ATTTATTG,0.0113
12,ATAGAAAG,-0.159
13,GTTGGACA,0.029
14,AGTCGGAC,0.0345
15,TACTATGA,0.127
16,ACCCTCGT,-0.178
17,GGCTAGTA,-0.0115
18,AGTTAGGA,0.0543
19,ACTTCCCG,-0.00046
20,ACGTATAC,0.0645
21,CTTTCCAC,-0.0452
22,AATTGCGC,0.232
23,CATGGTAA,0.0672
24,AGTTAGTC,-0.0819
25,ACGCAAGT,-0.0803

row,Sequence,PBM E-score
1,AGGAATGA,-0.106
2,GTGCGACA,-0.125
3,CACTTCCG,-0.0726
4,CGTGGGCA,-0.0799
5,CGTATCGA,-0.0409
6,CGTGAGAA,-0.0161
7,AACATTGA,0.0877
8,CCACTCGA,-0.00049
9,CGCGGGAC,0.171
10,CATGGCAC,0.0314
11,CCGGTTAG,0.0658
12,CGGCGCAG,-0.0913
13,ACCCTCAT,-0.177
14,AGTACCAC,-0.0358
15,GCTAGTGA,-0.00056
16,GCCGATAC,-0.157
17,CGAAATGC,-0.1
18,CACGCATC,-0.0605
19,AACGAGTG,0.0298
20,TAACAGGA,0.0656
21,ATACTCCG,0.155
22,TACTGTCA,0.106
23,AGGATTCA,-0.0821
24,ACCCCCCT,-0.463
25,CAACAATA,0.106

# Individual results from the entries so far.
# PBM E-score, ACTTCCCG is entered as -0.00046
# PBM E-score, GATCTCGC is entered as 0.0917
# PBM E-score, CGTGAGAA is entered as -0.0161

# Exported bar-delimited: part of the list above
row | Sequence | PBM E-score
14 | AGTACCAC | -0.0358
15 | GCTAGTGA | -0.00056

# The list continues:

row,Sequence,PBM E-score
1,CGCCTAAC,0.0465
2,CTGGAGTC,-0.195
3,CTCCAAGA,-0.082
4,CTACCGAA,-0.051
5,CGTCTCTA,-0.211
6,ATATGCTA,0.0777
7,GCAAATAA,0.207
8,AACCGTCA,-0.101
9,CTGGCGAC,-0.0775
10,AACCTTCG,0.113
11,TTGTCAAA,0.105
12,GTACTCAC,0.158
13,ATTCCCAG,0.00162
14,CCTTCAAA,0.106
15,AAGTAAAG,-0.0536
16,TAGGTAGA,0.0382
17,CTCCGATA,-0.00157
18,AGTTGTAA,0.0382
19,ATTTTATA,0.221
20,CCGGTGAC,-0.154
21,ACTAGCAC,-0.0277
22,ATGGTGAG,-0.163
23,GACCAGTC,-0.12
24,AGGACAGA,-0.217
25,GCTTCTAC,-0.0294

row,Sequence,PBM E-score
1,AGCAATGG,-0.00886
2,CTTGAATA,0.118
3,ACGCTGCT,-0.113
4,GAACTAGA,0.0545
5,GGAGGAGA,-0.268
6,CAAATTGC,0.153
7,CCTCCCAA,-0.093
8,GTTTTGAA,0.115
9,GGCGGTAA,0.045
10,ATTAGGAG,0.00943
11,ACAGTGAT,0.0824
12,CCGATAAC,0.093
13,AATGCGGG,0.0953
14,CAGACATC,0.137
15,ATGGAAGC,-0.144
16,GGCGTACC,-0.0821
17,CCAAGTGA,-0.147
18,ATCGCACC,-0.119
19,AAGGTTCC,-0.0332
20,CGGAAAGC,0.12
21,CATAGATA,-0.00913
22,TTCGCGAA,0.343
23,TCGATACA,0.225
24,AAACTTAG,-0.0664
25,ATCTGCCC,-0.00876

row,Sequence,PBM E-score
1,GTATTAAA,0.0777
2,CAGGCTGC,-0.0968
3,CCTAACAA,0.132
4,CATCGCTC,-0.187
5,GGGTCCGA,-0.21
6,TAACGGTA,0.048
7,TACTTTGA,-0.0264
8,GGATCGCA,0.00149
9,CCAGGAGA,-0.0506
10,CATGGAGA,-0.0214
11,CCTGATAA,0.0917
12,CCCCTAAA,-0.326
13,GGCGCTGA,-0.0921
14,ACATGTCG,0.0503
15,ATCATGGC,0.0916
16,CCGCCACG,-0.145
17,CACCGTTC,-0.0379
18,ACTATGGG,-0.127
19,ACTTGGTC,0.0646
20,GTTTTCAA,0.203
21,GGAGCATA,0.00116
22,ACTGCCAC,-0.11
23,AAGCATAC,0.0338
24,AGTCGTCC,-0.0982
25,CATACAGG,0.0745

row,Sequence,PBM E-score
1,AGATGTAA,0.117
2,CCCCTGAG,-0.15
3,ATATCAAG,0.251
4,ATAAAGCA,0.132
5,CGGTCCAA,-0.108
6,CTATCATC,0.063
7,ACTGAGGG,-0.241
8,CGTGATCA,0.123
9,AGGAACTA,-0.0396
10,ATGCCAGG,-0.0794
11,ATAGGAAG,-0.0607
12,TCCACGGA,0.282
13,ATATGCCC,-0.113
14,AATCGTTA,0.0983
15,ATACCTAC,-0.0299
16,CCAGCTCC,-0.198
17,GAATTGCA,0.00529
18,AGACTGCG,-0.0453
19,ACTCGAAC,0.0268
20,GATGACCC,-0.0103
21,AAGTTTAC,0.139
22,TATTCTGA,-0.0228
23,CTATGGAG,-0.212
24,ACACCGGG,-0.147
25,AGACTGGG,-0.134

row,Sequence,PBM E-score
1,GCTTGAGA,-0.126
2,AGTACGGC,0.0355
3,ATAGTTTA,0.0246
4,CTAGACGA,-0.147
5,CAAGGCGC,-0.00691
6,AAAATGCG,0.131
7,GTCAATGA,-0.119
8,CTGAGATA,0.0964
9,ACTGAGCT,-0.0831
10,AAAGACTT,-0.101
11,GGGTGCAA,0.0504
12,TAAAGATA,0.156
13,GGGAAAGA,-0.169
14,ACGCTAGA,-0.149
15,ACCGAGGA,-0.0309
16,TAGTGCCA,-0.0263
17,CTTCACTA,-0.0405
18,ACACCGGC,0.0574
19,CGACTGTA,-0.275
20,TATCCTAA,0.0621
21,AAGCAGTC,-0.175
22,TAGTAAAA,0.135

# Another view of some results above:
row	Sequence	PBM E-score
2	AGTACGGC	0.0355
3	ATAGTTTA	0.0246
